Our source for the z-score values is PubChem BioAssay AID1347423 (Functional Genomics Laboratory (NCATS/FGL), 2020).

Hit rate of the full screen: of about 52,000 sequences, about 210 (0.4%) were called active.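 The calls were made as follows: active = gene whose silencing raises cell survival under the drug, median off-target-corrected z-score across its silencing RNAs 2 or more; inactive = the rest.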 This is one part of the list.

A short description of this assay: Resistance to Poly (ADP-Ribose) Polymerase inhibitor: Gene Identification via Genome-wide siRNA Screen. The following applies: mouse BRCA2 R2336H ES cells, olaparib, CellTiter-Glo viability; active compounds read high. Put shortly:
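Genome-wide siRNA screen (3 siRNAs/gene, 20 nM) in mouse ES cells carrying hypomorphic BRCA2 R2336H; olaparib 500 nM added 48 h post-transfection, CellTiter-Glo viability 72 h later. Normalized to plate-median negative control; MAD z-scores, gene median, seed-adjusted.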
(In general: In ATP-based viability assays light output follows the ATP content of the culture.)
Consider UCUUUGGCAACACUACCAUTT against Olfr1386, for which the z-score is inactive: -2.29.
With GGAUAAGAGGGUGAAGUCATT against Cdyl2, the z-score is inactive: 1.62.
Take GCCAUGACUAUUCCAGCUUTT against Lgals4: the z-score is inactive: -0.568.
With “GGCUGAAAUAAAACAAGAATT against 2010315L10Rik”, the z-score is inactive: -0.67.
UUUCCCGACCUCUCCACUATT against Olfr463: the z-score is inactive: -1.08.
Take GGCCAAGAUCCAGAAGAAGTT against Ush1g: the z-score is inactive: -2.71.
In the case of GUACAAGUGUGGACCCUUATT against Chchd2, the z-score is inactive: -2.01.
Take “GAGUCUAGACAGUAUGUUCTT against 2900010J23Rik”: the z-score is inactive: -1.55.
As for GCAGAUGACUAUCGGAAGUTT against Usp53, the z-score was inactive: -0.145.
For GGGUGAUACUGACAAUCAUTT against Fhod1, the z-score is inactive: -0.652.
GGAAUACGGAAUCAUGGUUTT against BC037708: the z-score is inactive: 0.199.
Take “GCUGCCGUUUAAAUAUAUGTT against D10Wsu102e”: the z-score is inactive: -1.16.
For the sequence GCAGUGAACAGCUAUUAACTT against Styx, the z-score was inactive: -0.0524.
In the case of GGUGCUGAAGAAGCACCAUTT against Stat5a it was inactive: -0.354; in that of “GGACCUAAUAUCAUACUCATT against 4632407F12Rik”, inactive: -0.94.
With GGAUAACUACAGGAAUAAGTT against Spam1, the z-score is inactive: 0.143.
Regarding CCCUCCGAAAAUUUUUCUGTT against Defb14, the z-score is inactive: 0.36.
To GGAAAGCAGACAUCGACCUTT against Rps18 belongs inactive: -2.2; to “GGCCAAAGUGCAGAUGAAATT against 8230402K04Rik”, inactive: 0.762; to GCCAGUUGUGACAAAACUATT against Abca1, inactive: -1.41.
For the sequence UACAGUAGAGUCAUUUUCUTT against V1rd17, the z-score was inactive: 0.207.
As to “GGAUAAGACAAGAAGAGAUTT against A230079K17Rik”, the z-score is inactive: 0.433.
For the sequence GGAAUGAGAUUAUUUCUUGTT against Astn1, the z-score was inactive: 0.303.
As to CCCAUUGCCAGUACAACUUTT against Cxcr3, the z-score was inactive: -1.42.
For the sequence CCCAUGGAAAUCCUCAGUATT against Ppgb, the z-score is inactive: -1.56.
Consider CCUUGUUUUUCACAAAUCATT against Usp7, for which the z-score is inactive: -1.46.
Turning to GGAAUGAGGGUAAUGAAUATT against M6prbp1, the z-score is inactive: 1.42.
Regarding GGCAGCUAUAGGUUAGAUUTT against LOC434228, the z-score was inactive: 1.57.
Take GGCUAGGACCCAAGUUCUATT against Thra: the z-score is inactive: -0.0321.
In the case of “CCUUACCAGGAAACAUAUUTT against 1810055E12Rik”, the z-score was inactive: -1.62.
For CCAGGAACAGCUAUCGGAUTT against Homer2, the z-score is inactive: -2.24.
For the sequence GGCUCUUUAUGGACAUGGCTT against Tac1, the z-score is inactive: 0.45.
As to GCAUGAUAGGCCUGUUAUUTT against 4.93E+23, the z-score is inactive: -0.318.
For the sequence “GCAAUAUUUCAGCACACUGTT against 5730420B22Rik”, the z-score is inactive: 0.729.
To GGCAGAUAUUUAGAUGAUGTT against Pdyn belongs inactive: -0.995; to GGCUACCAUAGGUUUUAAUTT against LOC574418, inactive: 0.012; to GCUGCUUUAUCGAGUGGUUTT against Capn8, inactive: -1.37.
As to “GGCUUCCUACCUAAGGCUUTT against 6720463M24Rik”, the z-score was inactive: -0.264.
In the case of CGGAUUCAGUAUUAGCAAUTT against Ogt, the z-score was inactive: -1.49.
For GGAAAUCCUGCUGUAAGGATT against V1re10, the z-score is inactive: -1.89.
As for “GGUGGAAGGCAACAUAUAUTT against 1110059P08Rik”, the z-score was inactive: -1.23.
As to GGAAAGAUCAUGGACAAGUTT against Dtna, the z-score is inactive: -0.359.
For the sequence CCUGCAUUAGCAUGUUAGGTT against Gral, the z-score was inactive: 0.475.
As for CCGUUACAGUUAAAUUUACTT against Per3, the z-score is inactive: 1.46.
For GCAGUCACUAAAUUGGAAATT against Eif3s1, the z-score was inactive: 0.901.
“GGUUUCAUGUUCUGAAACUTT against 2210415K24Rik”: the z-score was inactive: 0.941.
Take GGCCAAGAAAAACUACUAUTT against Kcnk5: the z-score was inactive: -0.586.
Turning to GGAAUUCUAGACAAUCAAGTT against Ctso, the z-score is inactive: -0.477.
Take “GGAGAACAUAAUGAAAUCUTT against D0HXS9928E”: the z-score was inactive: 0.527.
On to CCCAAUGACAAUAAAGACCTT against Mmp25, for which the z-score was inactive: -0.156.
UUCUGUGAUCAUGUCUUCUTT against Tuba2: the z-score was inactive: -2.28.
As for CCUUGUGUAUGAAAUACUUTT against Taf1b, the z-score is inactive: -1.97.
Consider “GGCCUAUCCUCCAACAACATT against 2610311I19Rik”, for which the z-score was inactive: 0.159.
Turning to GGUGGUUCGAUAUGAGGCATT against Prom2, the z-score was inactive: -1.17.
Consider GGAAUCUUUAUGUCGGCACTT against Tgfbrap1, for which the z-score was inactive: 0.447.
To GGAAGUAGAGACAGGAGGATT against AF119384 belongs inactive: 1.25; to CCUAUUACCAGUCUUAUGATT against Zfp458, inactive: 0.128; to “GGUUGAAUCUGUAAACAUGTT against C130058G22Rik”, inactive: -0.288.
As to GGCCAGAGACUGCCUGAUUTT against MGC29978, the z-score is inactive: -2.63.
In the case of “GGAGAUCGUCUCUCUCAUCTT against 2500001H09Rik” it was inactive: -0.345; in that of GCUACCAUCGGUUUUCCGATT against Cdc6, inactive: 0.952.
Take “GGAAAUUGAUCAUUGACCATT against 4933417K04Rik”: the z-score was inactive: 0.559.
Consider CCACAGAUUACAUUUAUCCTT against Sephs1, for which the z-score was inactive: 0.234.
For GCGCAACUGAAAUAAAUGATT against Hoxc9, the z-score is inactive: -1.04.
As for CCAAUCCAACAGCAUAUUUTT against Vkorc1, the z-score is inactive: -0.646.
To “GGUUAGAAUUUGCUAGAAATT against D330038I09Rik” belongs inactive: -0.405.
